Values from PubChem BioAssay AID1224828 (NIAID, 2016).

Aim: 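Find genes required for NF-kappaB p65 moving into the nucleus after LPS in mouse macrophages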 (primary screen)
Cell system: mouse RAW264.7 G9 macrophage reporter cells (GFP-p65, Tnf promoter-mCherry)
Reagents: siRNA pool against mouse genes, 100 nM
Duration: 2 days siRNA transfection, then 40 min LPS before fixation
Conditions: LPS (Salmonella minnesota R595) at 10 ng/ml
Read-out: 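Imaged p65 nuclear translocation ratio, normalised to the plate median, converted to robust z-scores and averaged across two replicates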
Reading the numbers: p65 translocation robust z-score: higher = more nuclear NF-kappaB p65 after LPS than the plate median; nuclear/cytoplasmic p65 ratio: higher = more nuclear NF-kappaB p65
Call rule: 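Active if robust z is above 3.3 (negative regulators) or below -1.56, the Tlr4 control median (positive regulators); activity score 50 or more; control wells not called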
Calls: active = hit (p65 shift raised or lowered); inactive = no clear change
Here is an unselected part of about 17,000 deposited reagents. 762 of them (4.5%) were called active. 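Active calls include both raised and lowered p65 entry, mostly lowered; wells with fewer than 50 cells lack a z-score.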 Raw values vary from plate to plate and are shown uncorrected. Reagent sequences are not shown.

For Tmem223 (transmembrane protein 223), how do the results read?
p65 translocation robust z-score: -1.25; nuclear/cytoplasmic p65 ratio, rep 1: 1.31; nuclear/cytoplasmic p65 ratio, rep 2: 1.31; low cell count flag: enough cells to score; Outcome: inactive

Which result is listed for Dennd10 (DENN domain containing 10)?
p65 translocation robust z-score: 1.53; nuclear/cytoplasmic p65 ratio, rep 1: 1.52; nuclear/cytoplasmic p65 ratio, rep 2: 1.52; low cell count flag: enough cells to score; Outcome: inactive

How did the screen score Or5j1 (olfactory receptor family 5 subfamily J member 1)?
p65 translocation robust z-score: 0.93; nuclear/cytoplasmic p65 ratio, rep 1: 1.83; nuclear/cytoplasmic p65 ratio, rep 2: 1.69; low cell count flag: enough cells to score; Outcome: inactive

With Pcdhgb5 (protocadherin gamma subfamily B, 5), how do the results read?
p65 translocation robust z-score: 2.36; nuclear/cytoplasmic p65 ratio, rep 1: 1.8; nuclear/cytoplasmic p65 ratio, rep 2: 1.48; low cell count flag: enough cells to score; Outcome: inactive

What did the screen give for C5ar2 (complement component 5a receptor 2)?
p65 translocation robust z-score: -1.33; nuclear/cytoplasmic p65 ratio, rep 1: 1.3; nuclear/cytoplasmic p65 ratio, rep 2: 1.4; low cell count flag: enough cells to score; Outcome: inactive

With Spsb2 (splA/ryanodine receptor domain and SOCS box containing 2), what was measured?
p65 translocation robust z-score: -2.18; nuclear/cytoplasmic p65 ratio, rep 1: 1.28; nuclear/cytoplasmic p65 ratio, rep 2: 1.25; low cell count flag: enough cells to score; Outcome: active

Which result is listed for Crip3 (cysteine-rich protein 3)?
p65 translocation robust z-score: 2.28; nuclear/cytoplasmic p65 ratio, rep 1: 1.84; nuclear/cytoplasmic p65 ratio, rep 2: 2.24; low cell count flag: enough cells to score; Outcome: inactive

What is on record for Fgf12 (fibroblast growth factor 12)?
p65 translocation robust z-score: 0.19; nuclear/cytoplasmic p65 ratio, rep 1: 1.4; nuclear/cytoplasmic p65 ratio, rep 2: 1.46; low cell count flag: enough cells to score; Outcome: inactive

With Or2y8 (olfactory receptor family 2 subfamily Y member 8), how do the results read?
p65 translocation robust z-score: 1.45; nuclear/cytoplasmic p65 ratio, rep 1: 1.8; nuclear/cytoplasmic p65 ratio, rep 2: 1.63; low cell count flag: enough cells to score; Outcome: inactive

What is on record for Lyz3 (lysozyme 3)?
p65 translocation robust z-score: -1.94; nuclear/cytoplasmic p65 ratio, rep 1: 1.11; nuclear/cytoplasmic p65 ratio, rep 2: 1.27; low cell count flag: enough cells to score; Outcome: active

With Cox7b2 (cytochrome c oxidase subunit 7B2), what does the deposit list?
p65 translocation robust z-score: 0.49; nuclear/cytoplasmic p65 ratio, rep 1: 1.35; nuclear/cytoplasmic p65 ratio, rep 2: 1.33; low cell count flag: enough cells to score; Outcome: inactive

Which result is listed for Ywhaz?
p65 translocation robust z-score: -0.39; nuclear/cytoplasmic p65 ratio, rep 1: 1.46; nuclear/cytoplasmic p65 ratio, rep 2: 1.44; low cell count flag: enough cells to score; Outcome: inactive

No new results follow: 2 of the entries above.
Tmem223 (transmembrane protein 223): p65 translocation robust z-score = -1.25; nuclear/cytoplasmic p65 ratio, rep 1 = 1.31; nuclear/cytoplasmic p65 ratio, rep 2 = 1.31; low cell count flag = enough cells to score; Outcome = inactive
Dennd10 (DENN domain containing 10): p65 translocation robust z-score = 1.53; nuclear/cytoplasmic p65 ratio, rep 1 = 1.52; nuclear/cytoplasmic p65 ratio, rep 2 = 1.52; low cell count flag = enough cells to score; Outcome = inactive

The list goes on:
For Ext2 (exostosin glycosyltransferase 2), what was measured?
p65 translocation robust z-score: -0.69; nuclear/cytoplasmic p65 ratio, rep 1: 1.35; nuclear/cytoplasmic p65 ratio, rep 2: 1.3; low cell count flag: enough cells to score; Outcome: inactive

With Gata2 (GATA binding protein 2), what does the deposit list?
p65 translocation robust z-score: 0.88; nuclear/cytoplasmic p65 ratio, rep 1: 1.52; nuclear/cytoplasmic p65 ratio, rep 2: 1.52; low cell count flag: enough cells to score; Outcome: inactive

What did the screen give for Setx (senataxin)?
p65 translocation robust z-score: 1.49; nuclear/cytoplasmic p65 ratio, rep 1: 1.72; nuclear/cytoplasmic p65 ratio, rep 2: 1.83; low cell count flag: enough cells to score; Outcome: inactive

What is on record for Me2 (malic enzyme 2, NAD(+)-dependent, mitochondrial)?
p65 translocation robust z-score: -1.17; nuclear/cytoplasmic p65 ratio, rep 1: 1.52; nuclear/cytoplasmic p65 ratio, rep 2: 1.39; low cell count flag: enough cells to score; Outcome: inactive

For Ppp4r2 (protein phosphatase 4, regulatory subunit 2), what does the deposit list?
p65 translocation robust z-score: 0.12; nuclear/cytoplasmic p65 ratio, rep 1: 1.5; nuclear/cytoplasmic p65 ratio, rep 2: 1.44; low cell count flag: enough cells to score; Outcome: inactive

How did the screen score Nkx2-9 (NK2 homeobox 9)?
p65 translocation robust z-score: 0.95; nuclear/cytoplasmic p65 ratio, rep 1: 1.88; nuclear/cytoplasmic p65 ratio, rep 2: 1.65; low cell count flag: enough cells to score; Outcome: inactive

What did the screen give for Synrg (synergin, gamma)?
p65 translocation robust z-score: 1.22; nuclear/cytoplasmic p65 ratio, rep 1: 1.84; nuclear/cytoplasmic p65 ratio, rep 2: 1.77; low cell count flag: enough cells to score; Outcome: inactive

How did the screen score Daxx (Fas death domain-associated protein)?
p65 translocation robust z-score: -0.2; nuclear/cytoplasmic p65 ratio, rep 1: 1.52; nuclear/cytoplasmic p65 ratio, rep 2: 1.27; low cell count flag: enough cells to score; Outcome: inactive

With Tex11 (testis expressed gene 11), what does the deposit list?
p65 translocation robust z-score: 0.44; nuclear/cytoplasmic p65 ratio, rep 1: 1.79; nuclear/cytoplasmic p65 ratio, rep 2: 1.24; low cell count flag: enough cells to score; Outcome: inactive
